System: T1, GSLL (green speckled lentil seed lectin)
T1 construct: gene LcL; native, purified from seeds; 21 kDa non-reduced, subunits 17 and ~4 kDa; N-terminus TETTSFSITKFSPDQ (LcL residues 31-45); chain borders and alpha2beta2 are printed for LcL, not for GSLL
Test: hemagglutination inhibition, rabbit red blood cells
Format: binding, Lens culinaris
Conditions: PBS; 2 % rabbit red blood cells; competitive with cell-surface sugars

Compound | minimal concentration with an inhibitory effect
OC[C@H]1OC(O)[C@H](O)[C@@H](O)[C@@H]1O (stereo partly drawn) [glucose] | ~ 15.6 mM
N[C@H]1C(O)O[C@H](CO)[C@@H](O)[C@@H]1O (stereo partly drawn) [glucosamine] | ~ 31.2 mM
OC[C@H]1OC(O)[C@@H](O)[C@@H](O)[C@@H]1O (stereo partly drawn) [mannose] | ~ 15.6 mM
